Data: PMC7819943, “Rice protein-binding microarrays: a tool to detect cis-acting elements near promoter regions in rice”
The other results are listed elsewhere or left out.

Target: T1, OsSMF1 (Oryza sativa, UniProt Q6ZLB0 1-436)
T1 sequence: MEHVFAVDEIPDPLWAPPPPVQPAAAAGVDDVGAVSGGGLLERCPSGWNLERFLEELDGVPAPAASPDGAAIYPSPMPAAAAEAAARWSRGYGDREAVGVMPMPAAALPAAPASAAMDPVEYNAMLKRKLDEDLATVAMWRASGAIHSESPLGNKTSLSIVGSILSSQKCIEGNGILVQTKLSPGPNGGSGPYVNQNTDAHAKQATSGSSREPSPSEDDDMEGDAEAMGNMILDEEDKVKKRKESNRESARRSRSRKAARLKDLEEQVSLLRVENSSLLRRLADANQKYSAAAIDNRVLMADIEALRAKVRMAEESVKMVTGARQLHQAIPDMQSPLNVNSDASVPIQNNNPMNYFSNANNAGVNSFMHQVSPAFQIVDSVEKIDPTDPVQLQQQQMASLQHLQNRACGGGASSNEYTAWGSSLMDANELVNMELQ
Assay: protein-binding microarray (RPBM); PBS, 2% BSA, 51.3 ng/ul salmon testes DNA, 50 uM zinc acetate, 200 nM TF, 25 C, 1 h; high values mean tight binding
Conditions: protein: recombinant; tags: N-terminal polyhistidine and DsRed monomer fusion (pET32a); chain copies: 2; label: CyDye5-dUTP incorporated in the synthesized complementary strand; 3' TTTTT single-stranded linker to array surface; dsDNA, one strand shown
Procedure, shortened: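 Polyhistidine-tagged DsRed fusions of transcription factors, joined at the N-terminus, were expressed in E. coli BL21-CodonPlus and isolated on Ni–NTA. They were incubated at 200 nM for 1 h at 25 °C on a custom Agilent array, double-stranded and BSA-blocked, in PBS with 2% BSA, salmon testes DNA and 50 µM zinc acetate. The binding signal is per-feature fluorescence intensity (arbitrary units) read on an Axon 4000B scanner after washing.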

Sequence	binding signal
CCGACGACGTCACCTCCTCCTCCGCGACCGCCATGTCGTCCGGAGTCACCTAGTGCAG	4760 fluorescence intensity (a.u.)
GCATCTTCCATAAAGGATTATGATGTGTCTCATCTAATTCCGGAGTCACCTAGTGCAG	3350 fluorescence intensity (a.u.)
TAATTACATAGCTTAGCTTTTAGATGTCCGTGGCAAATTTCGGAGTCACCTAGTGCAG	3480 fluorescence intensity (a.u.)
CGACAGAGTTGGCTCGACGATGGAGCAGAGGTTCAAGGTCCGGAGTCACCTAGTGCAG	3420 fluorescence intensity (a.u.)
GAACCAAATGAAATGAGAACAAATTTAGTAAGTATTGGTGCGGAGTCACCTAGTGCAG	19500 fluorescence intensity (a.u.)
ATAACGTTGATTTGGGCAACAAATTAAATAGGCACAGTAACGGAGTCACCTAGTGCAG	3260 fluorescence intensity (a.u.)
CGCCACGTTCCTCCTGACCCATGCCACGCGCCGCCGTGCCCGGAGTCACCTAGTGCAG	3750 fluorescence intensity (a.u.)
TGTGAATTACTAGTAGTACGTAAGCATAAATACGCCACCCCGGAGTCACCTAGTGCAG	3550 fluorescence intensity (a.u.)
GTGCAGTGAGTGGTGGCAGTGCAGTGCTCCAGTCATTTCCCGGAGTCACCTAGTGCAG	4050 fluorescence intensity (a.u.)
TACATTCACGGAATACGCTGGCGTGTAGTCGTACACGTACCGGAGTCACCTAGTGCAG	5250 fluorescence intensity (a.u.)
GCTCCCGGGAGCTCTGCGCATGGCGCGCCACGTCACCCACCGGAGTCACCTAGTGCAG	30100 fluorescence intensity (a.u.)
GACATTTACATGTACTGATTGCTGATTGCCATTGATTCATCGGAGTCACCTAGTGCAG	22800 fluorescence intensity (a.u.)
GACCGGTGGGGCTTCCTCTCGTTGGCAGCCTCCCATTCATCGGAGTCACCTAGTGCAG	4730 fluorescence intensity (a.u.)
TCACTTTCGCTGAGGTGGAACAATGGCGTGGCAACTTTTGCGGAGTCACCTAGTGCAG	12000 fluorescence intensity (a.u.)
GCAGAAGAACACCCATAGGCCGCTCGTGACTGAGGCGCCGCGGAGTCACCTAGTGCAG	3770 fluorescence intensity (a.u.)
GTGTGCTTAACATCATTGCCACGCCTGAAATACTTTCACCCGGAGTCACCTAGTGCAG	6060 fluorescence intensity (a.u.)
CTTAAATCCAGTACGGTTATCAGCATGCCCACGTCCACGTCGGAGTCACCTAGTGCAG	3290 fluorescence intensity (a.u.)
TCGAGTAAGGTGAACTTATTCCTCATCGAATTGGTGTTACCGGAGTCACCTAGTGCAG	3490 fluorescence intensity (a.u.)
CCGGCATTGCCATCAGATGACGTCATGGTTCAGCAATTTCCGGAGTCACCTAGTGCAG	6810 fluorescence intensity (a.u.)
GCCCCGACACCCGGCGTTCCACGTCCGGCTTTTGCATCTTCGGAGTCACCTAGTGCAG	3930 fluorescence intensity (a.u.)
GGCATCAGCTCAGCTAGCTAGCCACGATAGCAATGGGGCGCGGAGTCACCTAGTGCAG	3300 fluorescence intensity (a.u.)
GTAGCGAGTTCAATGTGACACGACGTGTCGGTGACACCAACGGAGTCACCTAGTGCAG	6270 fluorescence intensity (a.u.)
TTTATGATGTTGTCAGCTACAGTGGAATTGTGCTTACAACCGGAGTCACCTAGTGCAG	3210 fluorescence intensity (a.u.)
TCCGTCGTTCCGTGTTGGCCCACGCTGCCGCCGCGCGCCGCGGAGTCACCTAGTGCAG	3440 fluorescence intensity (a.u.)
AATGTGGGAGAAGGGGAGGAGAGAGGGGAGGGGAGGGGACCGGAGTCACCTAGTGCAG	6010 fluorescence intensity (a.u.)
GTGACATCCTTGCAATCCCACTGCCAGGTAAACAAACTCTCGGAGTCACCTAGTGCAG	3260 fluorescence intensity (a.u.)
GCGGCGCGCGGTTGGGGAGGGGCGGGGACGCGTGAGAGCGCGGAGTCACCTAGTGCAG	6160 fluorescence intensity (a.u.)

Sequence	binding signal
GGTATTTTACTACCTTGGGGAGCTAAACGATGCACTGTCCCGGAGTCACCTAGTGCAG	24300 fluorescence intensity (a.u.)
TCGTCGTCGGTGCGGCGCCGCCAGGGAAAATGGAGTCATCCGGAGTCACCTAGTGCAG	4060 fluorescence intensity (a.u.)
CCTCCCTCCCGTGTGGTAGCCATGACAAGGCGGATGCGATCGGAGTCACCTAGTGCAG	4600 fluorescence intensity (a.u.)
TAAAAGAATACCACCACCACCTGGCCGGGCCCACTTCCAGCGGAGTCACCTAGTGCAG	26000 fluorescence intensity (a.u.)
AGCTCGTGTCGGCCCGTACACGTCATCCCCGGGCCCACCCCGGAGTCACCTAGTGCAG	21800 fluorescence intensity (a.u.)
ACCAAGGAACATTGTTTGCACCAGTTTTGATGGTTGGAGGCGGAGTCACCTAGTGCAG	4250 fluorescence intensity (a.u.)
TCTCCACTCCCAGTGGCACCTCGCTGCCTAGCGCGACGTACGGAGTCACCTAGTGCAG	3260 fluorescence intensity (a.u.)
GATCCAAAATGGGTGAGCCCAGTGGAGCCCCATTCGGCCACGGAGTCACCTAGTGCAG	5590 fluorescence intensity (a.u.)
GGCTCTTCTGTTGTACACCGATTTATTTATTTGATGCATGCGGAGTCACCTAGTGCAG	3390 fluorescence intensity (a.u.)
AGCCCGATTTTCTGTTCATTTCCACGTTTGATTTGGTGCACGGAGTCACCTAGTGCAG	3970 fluorescence intensity (a.u.)
GTTGAGTTGGGCCCACCTGTCAGCTAACACTATGATGGGCCGGAGTCACCTAGTGCAG	3650 fluorescence intensity (a.u.)
AACGTGACGTGCAACAATTTTCACGTATGCTCAGTTCTTCCGGAGTCACCTAGTGCAG	5770 fluorescence intensity (a.u.)
CGACGGCCACAACCGGTTGTGGCGGCGTCTGCGTTGGCAGCGGAGTCACCTAGTGCAG	5430 fluorescence intensity (a.u.)
CGACCGCAAGCTCGCCGCGTCGATGCTCTCCAGCTCTCCCCGGAGTCACCTAGTGCAG	3340 fluorescence intensity (a.u.)
TGTATTGATGTTTCATATATGCATGTATTGATGTTTGTTTCGGAGTCACCTAGTGCAG	3260 fluorescence intensity (a.u.)
ATTTTCAGGCCAACCAACTAACACGGCAAGTGAGATGCTTCGGAGTCACCTAGTGCAG	3340 fluorescence intensity (a.u.)
GCTGGGCTGACGTGTTACACCCCTGGCAAATCCAGCGTGGCGGAGTCACCTAGTGCAG	15200 fluorescence intensity (a.u.)
GCACTAACCTGGGCTACATGATTTTCCAAGTCAGCACTTACGGAGTCACCTAGTGCAG	7320 fluorescence intensity (a.u.)
CCCGTTCGCTGGCCGAAGCTCCGCCGTCAGACATGACGCCCGGAGTCACCTAGTGCAG	3650 fluorescence intensity (a.u.)
TCTACTGTGTGTGTGTGTGTGTGTGTTCACTACTGGATAGCGGAGTCACCTAGTGCAG	3160 fluorescence intensity (a.u.)
ATATAGGACTTGCCAACAGTGATTGACCTCACAGGCTCACCGGAGTCACCTAGTGCAG	3380 fluorescence intensity (a.u.)
AGCATCTTCGCTTGTGGTGCCGCACTGCCACCTACCCATCCGGAGTCACCTAGTGCAG	3940 fluorescence intensity (a.u.)
TCACTTCTCTCCTCCACATGTGCATACAACTGACTTATAACGGAGTCACCTAGTGCAG	4660 fluorescence intensity (a.u.)
AGGCAAGACGATATGCATGACGCTGTAGGTGGAAAGTTGGCGGAGTCACCTAGTGCAG	3300 fluorescence intensity (a.u.)
TTGGACTAGGGTGGTGGCGTGTCAAGTGGACAACACGACGCGGAGTCACCTAGTGCAG	5600 fluorescence intensity (a.u.)
TATATATATATATATAGACACACACGTGGGATAAGGAGAACGGAGTCACCTAGTGCAG	5540 fluorescence intensity (a.u.)
TCCAATCAGACGACTATTCCTATGTTTTACAATTCTCTATCGGAGTCACCTAGTGCAG	51200 fluorescence intensity (a.u.)

Look-ups from above:
AACGTGACGTGCAACAATTTTCACGTATGCTCAGTTCTTCCGGAGTCACCTAGTGCAG – binding signal: 5770 fluorescence intensity (a.u.)
TATATATATATATATAGACACACACGTGGGATAAGGAGAACGGAGTCACCTAGTGCAG – binding signal: 5540 fluorescence intensity (a.u.)
ACCAAGGAACATTGTTTGCACCAGTTTTGATGGTTGGAGGCGGAGTCACCTAGTGCAG – binding signal: 4250 fluorescence intensity (a.u.)
AGCATCTTCGCTTGTGGTGCCGCACTGCCACCTACCCATCCGGAGTCACCTAGTGCAG – binding signal: 3940 fluorescence intensity (a.u.)
ATATAGGACTTGCCAACAGTGATTGACCTCACAGGCTCACCGGAGTCACCTAGTGCAG – binding signal: 3380 fluorescence intensity (a.u.)
